## Primary screen of a compound library

Source: ChEMBL document CHEMBL3988442, “University of Dundee, Small-Polar-MMV Screening Library” (2021).

The filed quantity is “Percent Effect” (%). The controls that fix the scale are not given in the record; negative values are as filed. Compounds were drawn at random from those tested, without regard to their results. A dash means the value is not listed here; it may have been measured.

Mtb growth Cornell: 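Whole-cell assay for inhibitors of Mycobacterium tuberculosis growth, labelled Cornell in the record; the read-out is not stated. The concentration is filed as 10 mM, unlikely as a test dose, so the dose is not known. The record gives no direction; compounds strong in two other growth screens of this library score well above the rest, so higher reads as stronger inhibition. Size under these conditions: about 53,000 compounds, about 900 of them at 50% or above in at least one test.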
Mtb heat-shock: 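Assay on Mycobacterium tuberculosis, filed only as a heat shock assay from Cornell; the read-out is not stated. The concentration is filed as 10 mM, unlikely as a test dose, so the dose is not known. The record gives no direction; compounds that gave an IC50 in retests scored well above the rest, so higher reads as stronger inhibition. Size under these conditions: about 69,000 compounds, about 930 of them at 50% or above in at least one test.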

Compound | Mtb growth Cornell | Mtb heat-shock
O=C(O)C(F)(F)F.[H][C@@]12CCN(Cc3cnn(C)c3)[C@]1([H])CC[C@@H](C(=O)NCc1ccco1)O2 | 22.32 | 5.521
CC(C)C(C)(C#N)NC(=O)Cn1cc(I)cn1 (stereo not drawn) | - | 8.195
COc1ccc(F)cc1S(=O)(=O)N1CCC(OC)CC1 | 9.653 | -2.654
Cc1n[nH]cc1CNc1ccc2c(c1)N(C(=O)OC(C)(C)C)CCC2 | 22.02 | -6.866
Cc1noc2nc(C3CCN(Cc4ccccn4)CC3)cc(C(F)F)c12 | 5.073 | -4.698
Cl.O=C(C1CC1)N1CCOC2(CCNCC2)C1 | -14.85 | 27.3
Cc1noc(-c2ccnc(N3CCC(CN4CCOCC4)CC3)c2)n1 | -32.68 | -2.013
CC(=O)NCc1cccc(-n2ccnc2-c2cccc(C(=O)O)c2)c1 | -1.466 | -13.73
NC(=O)N1CCCC(C(=O)NCCc2nc(Cc3ccccc3)no2)C1 (stereo not drawn) | - | 5.57
CCc1ncncc1C(=O)N1CCN(Cc2ccsc2)CC1 | -61.22 | -22.23
CC(OCC(F)(F)F)C(=O)N1CCOCC1 (stereo not drawn) | 5.405 | -5.019
CC(C)n1nc2c(cc1=O)CN(Cc1nnc(C3CC3)o1)CC2 | -0.9699 | 23.87
Cl.O=C(NCC1CCC2(CCNCC2)CO1)c1ccno1 (stereo not drawn) | 9.989 | -10.78
CNC(=O)C(C)(C)NC(=O)c1cc(COc2cccc(C(C)=O)c2)[nH]n1 | 11.95 | 6.84
CS(=O)(=O)N1CC(c2n[nH]c3ncccc23)C1 | -14.19 | -28.88
COc1ncccc1NC(=O)NC(C)c1nncn1C (stereo not drawn) | - | 8.691
[H][C@@]12CCN(S(=O)(=O)CCC)[C@@]1([H])CC(=O)N2Cc1csc(C)n1 | 7.518 | -2.33
COCCCN1CC2(CCCCN2C(=O)C2CCCCC2)CC1=O (stereo not drawn) | -13.21 | -6.407
CC(C)(O)CNC(=O)c1sccc1Br | 5.913 | 13
Cc1nc(NC(C)C)nc2c1CN(Cc1nccn1C)CC2 | -3.037 | 12.34
CN(C)c1ncccc1CNC(=O)N1CCCC1c1cccs1 (stereo not drawn) | - | 1.049
Cc1cc(C)nc(CCNc2nccc(CCC(F)(F)F)n2)n1 | -19.6 | -13.53
CCc1cnc(CN2C(=O)CC3(CCSC3)C2=O)o1 (stereo not drawn) | -18.92 | 14.26
CCN(CC1CCOC1)C(=O)c1ccccc1S(=O)(=O)CC (stereo not drawn) | -4.708 | -9.814
CCC(CNC1CCN(C(C)=O)CC1)Oc1ccccc1Cl (stereo not drawn) | 14.27 | -6.848
CCC(=O)NC1CCN(c2cccc(CC)c2)CC1 | - | -19.83
Cc1ccnc(NCCNC(=O)c2ccccc2NCC(=O)O)c1 | 11.8 | 5.397
CN(Cc1cccc(OC(F)(F)F)c1)C(=O)c1ccncc1F | 19.07 | -4.634
CC(NC(=O)CNCCn1cccn1)c1ccc2c(c1)OCCO2 (stereo not drawn) | 17.51 | 13.66
Cc1nc(C)n(CC2CCCN2CCOc2ccccc2F)n1 (stereo not drawn) | - | -7.044
[H][C@]12CC[C@]([H])(CN(Cc3cccnc3)C1)N(C(=O)c1ccc(SC)cc1)C2 | - | 12.32
Cc1cc(Cn2cc(C#N)c(=O)c3ccccc32)no1 | -52.64 | -14.7
CC(C)Oc1cccc(C(=O)C2CCCN(C(=O)c3ncn[nH]3)C2)c1 (stereo not drawn) | - | 6.004
CN(C(=O)c1ncn2c1CN(C)S(=O)(=O)c1ccccc1-2)C1CC1.O=C(O)C(F)(F)F | 9.335 | -4.326
Cn1c(=O)n(C)c2cc(NS(=O)(=O)Cc3cccc(F)c3)ccc21 | -11.78 | 11.69
O=C(NCCS(=O)(=O)N1CCc2ccccc21)c1c(O)cc(F)cc1F | - | -3.923
COCCN1CCC2(CCN(C(=O)c3ccc(F)cc3)CC2)C1=O | -12.91 | -11.75
Cc1ccc(-c2ccnc(N(C)CC3CCCN3C)n2)c(C)n1 (stereo not drawn) | -7.651 | -16.58
CC(NC(=O)NCCCNS(C)(=O)=O)c1ccncc1 (stereo not drawn) | - | -21.94
CN1CC[C@]2(CN(Cc3nccs3)C[C@H]2c2ccccc2)C1=O.O=C(O)C(F)(F)F | 21.69 | -13.61
Cc1noc(C)c1-c1nc(C2CCCN(CCC(N)=O)C2)ccc1CO (stereo not drawn) | 41.58 | 2.94
COCC(=O)Nc1ccc(Sc2nncn2C)c(Cl)c1 | -35.19 | -2.093
O=C(O)C(F)(F)F.[H][C@@]12OCCN(C(=O)c3ccc(F)cc3)[C@@]1([H])CC[C@H]2OCCN(C)C | - | -32.91
CC(=O)Nc1nccn1Cc1ccccc1Cl | 15.67 | 63.7
COc1cccc(OC2CN(C(=O)CCn3cnc4ccccc43)C2)c1 | - | -7.03
CCOC(C)C(=O)Nc1cc(S(=O)(=O)NC2CC2)ccc1F (stereo not drawn) | -52.21 | -11.27
CNc1ncc(CN(C)Cc2cc(O)c3cccc(Cl)c3n2)cn1 | -6.867 | -4.895
Cc1ccc(S(=O)(=O)c2ncccc2CN2CCCC2)cc1 | -5.255 | -16.56
c1ccc2c(N3CCCC3Cn3cccn3)ncnc2c1 (stereo not drawn) | 8.698 | 17.78
CC(C)Sc1ncccc1C(=O)NCc1cccc(N(C)C)c1 | -11.95 | 2.564
CCN(Cc1cccc2c1OCO2)CC1CCCO1 (stereo not drawn) | - | -23.06
CN(C)C1Cc2ccccc2N(S(=O)(=O)c2cccc(C#N)c2)C1 (stereo not drawn) | 10.4 | -29.39
CO[C@@H]1CO[C@@]2(CCCN(C(=O)N3CCCC3)C2)C1 | -24.42 | 26.24
COCC(=O)N1CCc2c(nnn2C)C1COCCN1CCCC1.O=C(O)C(F)(F)F (stereo not drawn) | 13.75 | -12.56
O=C(CN1CCc2cncnc2C1)NCCOc1cccc(Cl)c1 | 7.85 | -10.49
Cc1ccoc1-c1nnc(CN2CCn3c(C)nnc3C2)o1 | -76.55 | -21.03
COc1ccc(OC)c(-c2nc(CN(C)Cc3noc(C)n3)c(C)o2)c1 | 21.3 | -10.41
Cc1cc(CN(C)C(=O)C2CCC(=O)N(CC3CCCCC3)C2)n[nH]1 (stereo not drawn) | -6.633 | 0.6682
Cn1c(=O)c2sccc2n(CC(=O)Nc2cccc(Cl)c2)c1=O | - | -15.36
Cl.O=C(CN1CCCC1)Nc1c2c(cc3c1CCC3)CCC2 | 40.53 | -5.336
CS(=O)(=O)c1ccc(NCC2CCCO2)c(S(C)(=O)=O)c1 (stereo not drawn) | -21.42 | 10.71
O=C(c1cnccn1)N1CCc2ncc(CN3CCOCC3)n2CC1 | 31.32 | 5.287
CCn1ncc2c1C(COCC1CC1)N(Cc1cnn(C)c1)CC2.O=C(O)C(F)(F)F.O=C(O)C(F)(F)F.O=C(O)C(F)(F)F (stereo not drawn) | 24.73 | -12.2
CO[C@H]1CCN(S(=O)(=O)c2cccs2)[C@H]1Cc1cccnc1.O=C(O)C(F)(F)F | 15.06 | -5.917

The first 7 entries again:

Compound,Mtb growth Cornell,Mtb heat-shock
O=C(O)C(F)(F)F.[H][C@@]12CCN(Cc3cnn(C)c3)[C@]1([H])CC[C@@H](C(=O)NCc1ccco1)O2,22.32,5.521
CC(C)C(C)(C#N)NC(=O)Cn1cc(I)cn1 (stereo not drawn),-,8.195
COc1ccc(F)cc1S(=O)(=O)N1CCC(OC)CC1,9.653,-2.654
Cc1n[nH]cc1CNc1ccc2c(c1)N(C(=O)OC(C)(C)C)CCC2,22.02,-6.866
Cc1noc2nc(C3CCN(Cc4ccccn4)CC3)cc(C(F)F)c12,5.073,-4.698
Cl.O=C(C1CC1)N1CCOC2(CCNCC2)C1,-14.85,27.3
Cc1noc(-c2ccnc(N3CCC(CN4CCOCC4)CC3)c2)n1,-32.68,-2.013